Results are given in words; binding and its absence hold for the method and conditions named. Binding seen in cells or lysates may run through a third protein. Some binding calls cover weakened binding; strength is not graded here. Tags and fused reporters may be left off the sequences shown.
Biological target: T1, FLAG-tagged KDELR3 (KDELR3-001, transcript variant 1) (human) (UniProt O43731)
T1 sequence: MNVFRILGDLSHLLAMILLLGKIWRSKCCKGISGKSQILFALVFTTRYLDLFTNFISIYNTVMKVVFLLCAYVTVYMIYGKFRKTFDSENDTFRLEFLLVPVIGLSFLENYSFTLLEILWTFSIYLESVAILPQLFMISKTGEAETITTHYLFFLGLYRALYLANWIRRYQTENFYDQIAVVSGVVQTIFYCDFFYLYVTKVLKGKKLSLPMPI
Experiment: co-IP; stably transduced 1205Lu cells lysed in 1% Triton X-100 buffer (50 mM Tris pH 7.5, 150 mM NaCl, 10 mM iodoacetamide, 50 µM MG132); 2 mg lysate immunoprecipitated with anti-gp78 or anti-DDK antibody on Dynabeads Protein A, overnight at 4 °C; immunoblot with anti-DDK or anti-gp78 (Ab2)

Chains of the proteins cited; added tags and fusions are not shown.
UniProt Q9UKV5: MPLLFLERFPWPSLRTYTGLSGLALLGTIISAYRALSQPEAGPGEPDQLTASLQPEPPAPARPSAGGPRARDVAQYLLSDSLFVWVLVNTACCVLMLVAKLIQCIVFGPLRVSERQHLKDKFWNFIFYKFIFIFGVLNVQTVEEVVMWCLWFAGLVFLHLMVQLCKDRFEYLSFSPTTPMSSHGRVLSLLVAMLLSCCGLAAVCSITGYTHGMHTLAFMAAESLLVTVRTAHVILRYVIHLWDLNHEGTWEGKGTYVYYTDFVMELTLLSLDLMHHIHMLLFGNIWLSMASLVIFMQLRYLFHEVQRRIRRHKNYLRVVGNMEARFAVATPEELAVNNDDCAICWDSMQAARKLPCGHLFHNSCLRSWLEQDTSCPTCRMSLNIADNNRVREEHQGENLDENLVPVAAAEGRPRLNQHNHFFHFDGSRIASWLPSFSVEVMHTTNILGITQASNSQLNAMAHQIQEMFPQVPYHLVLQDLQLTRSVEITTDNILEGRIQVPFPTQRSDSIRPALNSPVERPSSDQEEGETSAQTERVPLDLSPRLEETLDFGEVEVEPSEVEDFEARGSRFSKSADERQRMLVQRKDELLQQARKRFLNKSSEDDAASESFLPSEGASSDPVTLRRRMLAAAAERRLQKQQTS

Row | binding | Substance
1 | binds | gp78 / autocrine motility factor receptor (AMFR), endogenous (from UniProt Q9UKV5 1-643) (enzyme)
2 | binds | mCherry-tagged gp78 (from UniProt Q9UKV5 1-643) (enzyme)

— publication PMC6965108
